Experimental findings from publication PMC5366950 are described below.

By UniProt entry, the sequences of proteins in these tests, tags left out.
UniProt Q4ACU6: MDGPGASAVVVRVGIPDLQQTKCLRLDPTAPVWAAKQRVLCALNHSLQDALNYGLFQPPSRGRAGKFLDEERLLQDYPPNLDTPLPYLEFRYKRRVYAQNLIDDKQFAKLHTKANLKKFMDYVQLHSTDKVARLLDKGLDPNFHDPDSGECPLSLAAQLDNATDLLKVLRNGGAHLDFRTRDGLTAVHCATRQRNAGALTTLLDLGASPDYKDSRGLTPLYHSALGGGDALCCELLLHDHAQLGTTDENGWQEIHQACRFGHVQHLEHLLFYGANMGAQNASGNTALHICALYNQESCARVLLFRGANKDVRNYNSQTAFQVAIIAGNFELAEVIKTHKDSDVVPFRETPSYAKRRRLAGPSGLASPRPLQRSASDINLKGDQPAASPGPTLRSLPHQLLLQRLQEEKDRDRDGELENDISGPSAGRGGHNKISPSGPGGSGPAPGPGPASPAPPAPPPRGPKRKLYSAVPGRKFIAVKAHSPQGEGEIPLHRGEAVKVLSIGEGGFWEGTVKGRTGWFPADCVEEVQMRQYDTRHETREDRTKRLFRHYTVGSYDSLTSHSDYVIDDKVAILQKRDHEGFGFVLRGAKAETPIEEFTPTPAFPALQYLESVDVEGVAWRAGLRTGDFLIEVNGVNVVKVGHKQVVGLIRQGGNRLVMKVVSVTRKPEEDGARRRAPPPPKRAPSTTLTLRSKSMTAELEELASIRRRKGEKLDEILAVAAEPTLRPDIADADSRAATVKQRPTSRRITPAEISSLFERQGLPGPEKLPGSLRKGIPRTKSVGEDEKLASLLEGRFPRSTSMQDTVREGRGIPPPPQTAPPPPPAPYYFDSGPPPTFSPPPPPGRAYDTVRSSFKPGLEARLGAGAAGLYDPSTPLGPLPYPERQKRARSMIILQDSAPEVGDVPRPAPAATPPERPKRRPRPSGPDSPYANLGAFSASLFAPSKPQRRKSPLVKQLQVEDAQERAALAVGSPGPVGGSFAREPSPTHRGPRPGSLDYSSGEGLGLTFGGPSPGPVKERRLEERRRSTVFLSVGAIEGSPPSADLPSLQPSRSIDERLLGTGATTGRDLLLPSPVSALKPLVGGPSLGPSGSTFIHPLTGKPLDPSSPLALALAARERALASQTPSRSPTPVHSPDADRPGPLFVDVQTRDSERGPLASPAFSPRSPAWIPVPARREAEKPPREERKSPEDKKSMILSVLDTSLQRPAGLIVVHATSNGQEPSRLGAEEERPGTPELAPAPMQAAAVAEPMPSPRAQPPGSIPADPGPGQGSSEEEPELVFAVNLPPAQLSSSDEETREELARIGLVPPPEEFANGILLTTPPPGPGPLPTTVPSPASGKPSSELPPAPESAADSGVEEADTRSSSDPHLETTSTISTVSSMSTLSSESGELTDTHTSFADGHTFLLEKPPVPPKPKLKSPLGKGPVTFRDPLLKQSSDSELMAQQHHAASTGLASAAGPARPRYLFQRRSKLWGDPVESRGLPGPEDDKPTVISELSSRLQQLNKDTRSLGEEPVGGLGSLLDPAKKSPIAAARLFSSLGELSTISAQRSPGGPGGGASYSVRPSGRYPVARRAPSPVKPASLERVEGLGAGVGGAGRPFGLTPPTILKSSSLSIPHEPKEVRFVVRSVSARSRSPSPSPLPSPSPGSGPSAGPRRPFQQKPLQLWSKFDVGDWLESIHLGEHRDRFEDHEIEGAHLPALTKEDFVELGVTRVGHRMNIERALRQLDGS
UniProt Q9BYB0: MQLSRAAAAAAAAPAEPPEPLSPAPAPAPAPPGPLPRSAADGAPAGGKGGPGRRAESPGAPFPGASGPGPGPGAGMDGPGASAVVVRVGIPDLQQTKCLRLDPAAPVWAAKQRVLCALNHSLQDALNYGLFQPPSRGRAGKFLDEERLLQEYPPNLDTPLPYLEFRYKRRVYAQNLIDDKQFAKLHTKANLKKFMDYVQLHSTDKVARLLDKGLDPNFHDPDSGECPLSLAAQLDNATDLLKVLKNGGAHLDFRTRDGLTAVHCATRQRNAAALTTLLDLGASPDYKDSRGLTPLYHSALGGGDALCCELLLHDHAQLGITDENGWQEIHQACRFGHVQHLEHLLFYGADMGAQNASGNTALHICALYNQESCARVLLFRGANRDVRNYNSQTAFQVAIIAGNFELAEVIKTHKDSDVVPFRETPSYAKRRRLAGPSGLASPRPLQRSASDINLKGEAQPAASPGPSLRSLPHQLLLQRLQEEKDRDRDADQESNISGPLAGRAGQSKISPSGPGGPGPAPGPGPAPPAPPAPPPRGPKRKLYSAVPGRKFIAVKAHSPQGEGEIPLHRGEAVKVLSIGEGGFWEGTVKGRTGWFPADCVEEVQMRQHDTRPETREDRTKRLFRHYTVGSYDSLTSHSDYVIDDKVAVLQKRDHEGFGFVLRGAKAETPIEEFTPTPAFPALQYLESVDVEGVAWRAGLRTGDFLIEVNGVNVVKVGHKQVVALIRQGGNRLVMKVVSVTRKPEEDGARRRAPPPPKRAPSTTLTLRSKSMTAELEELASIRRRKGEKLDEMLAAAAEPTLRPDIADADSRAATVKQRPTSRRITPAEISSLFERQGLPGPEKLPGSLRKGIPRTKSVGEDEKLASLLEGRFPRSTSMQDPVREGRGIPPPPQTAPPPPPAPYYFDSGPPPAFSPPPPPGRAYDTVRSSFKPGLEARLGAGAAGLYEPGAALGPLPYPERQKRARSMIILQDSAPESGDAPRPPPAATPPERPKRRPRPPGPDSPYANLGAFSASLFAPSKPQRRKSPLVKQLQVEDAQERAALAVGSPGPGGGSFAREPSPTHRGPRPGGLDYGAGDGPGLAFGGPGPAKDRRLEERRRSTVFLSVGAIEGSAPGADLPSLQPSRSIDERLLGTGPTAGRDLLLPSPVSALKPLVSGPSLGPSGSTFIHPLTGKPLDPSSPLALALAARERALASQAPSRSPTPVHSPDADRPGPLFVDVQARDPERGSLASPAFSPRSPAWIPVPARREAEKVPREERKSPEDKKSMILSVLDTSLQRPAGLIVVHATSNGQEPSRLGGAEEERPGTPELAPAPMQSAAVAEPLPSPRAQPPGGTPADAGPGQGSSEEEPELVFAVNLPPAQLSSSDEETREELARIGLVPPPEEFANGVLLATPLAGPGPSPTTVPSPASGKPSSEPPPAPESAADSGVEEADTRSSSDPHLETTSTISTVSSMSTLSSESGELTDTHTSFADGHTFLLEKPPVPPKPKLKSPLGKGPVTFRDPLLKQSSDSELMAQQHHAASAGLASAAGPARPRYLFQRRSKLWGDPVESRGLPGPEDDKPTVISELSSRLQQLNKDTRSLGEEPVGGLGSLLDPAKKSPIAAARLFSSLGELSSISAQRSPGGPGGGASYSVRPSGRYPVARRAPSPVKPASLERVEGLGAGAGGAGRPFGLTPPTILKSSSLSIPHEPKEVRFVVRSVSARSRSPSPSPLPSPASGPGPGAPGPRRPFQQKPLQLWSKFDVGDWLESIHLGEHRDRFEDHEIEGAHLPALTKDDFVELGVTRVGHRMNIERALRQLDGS

The target in assay [1] is SHANK3 (mouse GI epithelium) (mouse (endogenous in GI epithelium)) (UniProt Q4ACU6). As to the kind of experiment: co-IP; protein lysate from mouse GI epithelium; 10 ul SHANK3 antibody serum, uMACS columns and Protein G MicroBeads; blots with anti-ZIP4 and anti-ZIP2; control without SHANK3 antibody on the beads.
The target of assay [2] is SHANK3 (SH3 and multiple ankyrin repeat domains 3) (human (endogenous in hiPSC-derived enterocytes)) (UniProt Q9BYB0). Description: co-IP; lysate of hiPSC-derived enterocyte-like cells (Triton X Lysis Buffer, 30 min on ice); 10 ul SHANK3 antibody serum, uMACS columns and Protein G MicroBeads; blots with anti-ZIP4 and anti-ZIP2; control without SHANK3 antibody on the beads.

Results are given in words; binding and its absence hold for the method and conditions named. Binding seen in cells or lysates may run through a third protein. Some entries that bind do so weakly or less than the wild type.

B1: ZIP4 (mouse GI epithelium) (protein, UniProt Q78IQ7 23-660)
chain: RPRNLLSLLALGQGALDRLELDGLLNTLVARVHCTDGPCEKCLSVENVLALGKPDKPQPAPESVLESRHIIYLSAAAALYLNNPEKTCKDIQAGLLASHVDDYLATLESPEAMTLGLSQLLQKIEAHAASQPTGEKTCVDLPQLLEEAEAAGVSKSAGLVLTALLDHVINGSCFQGLPSPQYFVDFVFRLHSSDPPNITLHELENLMHHLGVGGEDHSDHDDHGDHADHSHPDRKASHQDSELHTPHNSNSSVWDTLCLSAKDIMAVYGLSEEAGVSPQAWAQLTPALVQQQLSGACSPYPTIRIQDQLSQTERYLYGSLATLLICLCAVFGLLLLTCAKCSTATHYIMQTFLSLAVGALTGDALLHLIPKVLGLHTHGGEGHTHEEEVGVGGQATWRLLAVLGGFYIFFLFESFFNLLLPRDQDSEKDGPCSHGGHSHGISLQLAPSNLRQSKQTHESSRSDLVAEETPELLNPETRRLRAELRLLPYLITLGDAVHNFADGLAVGAAFSSSWKTGLATSLAVFCHELPHELGDFAALLHAGLSVKRALLLNLASALTAFAGLYVALAVGVGEEGEAWILAVATGLFLYVALCDMLPAMMNVRDQRPWLLFLLHNVGLLGGWTVLLLLSLYEDNITF
For the molecule B1, the binding entry in assay [1] is listed as “binds”.

B2: ZIP4 (SLC39A4) (protein, UniProt Q6P5W5 23-647)
chain: SPPAGLLSLLTSGQGALDQEALGGLLNTLADRVHCANGPCGKCLSVEDALGLGEPEGSGLPPGPVLEARYVARLSAAAVLYLSNPEGTCEDARAGLWASHADHLLALLESPKALTPGLSWLLQRMQARAAGQTPKMACVDIPQLLEEAVGAGAPGSAGGVLAALLDHVRSGSCFHALPSPQYFVDFVFQQHSSEVPMTLAELSALMQRLGVGREAHSDHSHRHRGASSRDPVPLISSSNSSSVWDTVCLSARDVMAAYGLSEQAGVTPEAWAQLSPALLQQQLSGACTSQSRPPVQDQLSQSERYLYGSLATLLICLCAVFGLLLLTCTGCRGVTHYILQTFLSLAVGAVTGDAVLHLTPKVLGLHTHSEEGLSPQPTWRLLAMLAGLYAFFLFENLFNLLLPRDPEDLEDGPCGHSSHSHGGHSHGVSLQLAPSELRQPKPPHEGSRADLVAEESPELLNPEPRRLSPELRLLPYMITLGDAVHNFADGLAVGAAFASSWKTGLATSLAVFCHELPHELGDFAALLHAGLSVRQALLLNLASALTAFAGLYVALAVGVSEESEAWILAVATGLFLYVALCDMLPAMLKVRDPRPWLLFLLHNVGLLGGWTVLLLLSLYEDDITF
Regarding B2, the binding entry in assay [2] was “binds”.

B3: ZIP2 (mouse GI epithelium) (protein, UniProt G3X943 1-309)
chain: MEVLLGVKIGCLLALLVLTLGCGLTPIYVKWFQMDAATGHHHRVLSLLGCTSAGVFLGAGLMHMTAEALEGIESEIQKFVEQNSTGSKGNSSRDAASSYVEYPYGELVISLGFFFVFLLESLALQCCHGAAGGSTVQEEEWGGTHAFGFHKHPAVPSPSRGPLRALVLLLSLSFHSVFEGLAVGLQATVAATIQLCVAVLAHKGLVVFSVGLRLGKIGTGPRWATFCILSLALMSPVGLALGLTVAGGASGQTQGLAQAVLEGIAAGTFLYVTFLEILPRELACPEAPLAKYSCVAAGFAFMALIALWA
Turning to B3, the binding result in assay [1] is “binds weakly”.
